PubChem BioAssay AID1259425 – University of Nebraska Medical Center | 2018

Screen: 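Seek colon cancer weak points whose silencing resembles KSR1 loss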 (primary screen)
Cell system: HCT116 human colon cancer cells
Reagent: siRNA pool against human genes, 50 nM siRNA
Detection: 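After 50 nM siRNA pool, branched-DNA assay measures six marker transcripts per well, minus blank, normalised to the geometric mean of two housekeeping transcripts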
Scale: BNIP3L mRNA: higher = more BNIP3L transcript after knockdown
This is a random part of about 14,000 reagents. Reagents against one gene are numbered here. Further read-outs or replicates are left out here. Not stated in the record: the time to read-out.

What did the screen give for MYCBPAP (MYCBP associated protein)?
BNIP3L mRNA, set 1: 0.522

Which result is listed for RSL24D1 (ribosomal L24 domain containing 1)?
BNIP3L mRNA, set 1: 0.157

How did the screen score ZNF350 (zinc finger protein 350)?
BNIP3L mRNA, set 1: 0.0637

What did the screen give for CEBPE (CCAAT enhancer binding protein epsilon)?
BNIP3L mRNA, set 1: 0.0367

How did the screen score SLC12A6?
BNIP3L mRNA, set 1: 0.0736

Which result is listed for HAT1 (histone acetyltransferase 1)?
BNIP3L mRNA, set 1: 0.0645

What is on record for PLEC (plectin)?
BNIP3L mRNA, set 1: 0.119

For DNAJB2 (DnaJ heat shock protein family (Hsp40) member B2), how do the results read?
BNIP3L mRNA, set 1: 0.0752

How did the screen score EEF1A1 (eukaryotic translation elongation factor 1 alpha 1)?
BNIP3L mRNA, set 1: 0.0586

With TAAR6 (trace amine associated receptor 6), how do the results read?
BNIP3L mRNA, set 1: 0.114

What did the screen give for FOXH1 (forkhead box H1)?
BNIP3L mRNA, set 1: 0.091

With DIDO1 (death inducer-obliterator 1) #1, what does the deposit list?
BNIP3L mRNA, set 1: 0.136

For DIDO1 (death inducer-obliterator 1) #2, how do the results read?
BNIP3L mRNA, set 1: 0.218

2 entries from above in another layout:
{"gene knocked down": "PLEC (plectin)", "reagent": 1, "BNIP3L mRNA, set 1": 0.119}
{"gene knocked down": "DNAJB2 (DnaJ heat shock protein family (Hsp40) member B2)", "reagent": 1, "BNIP3L mRNA, set 1": 0.0752}
